The source of these data is patent publication US20090186949A1, “Method for Treating Endothelial and Epithelial Cell Disorders by Administering High Molecular Weight PEG-Like Compounds” (THE UNIVERSITY OF CHICAGO, priority 2006, published 2009).

Sequences of proteins named here, by UniProt entry; tags and fusion partners are left off. Residues count along the entry.
UniProt P01579, residues 24-166: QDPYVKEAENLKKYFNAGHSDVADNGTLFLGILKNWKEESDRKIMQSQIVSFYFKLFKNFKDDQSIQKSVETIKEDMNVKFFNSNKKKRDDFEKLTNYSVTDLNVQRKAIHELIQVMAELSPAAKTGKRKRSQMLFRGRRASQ

This assay has as its target T1, P. aeruginosa outer membrane porin OprF (outer membrane protein F) (Pseudomonas aeruginosa (strain PAO1)) (UniProt P13794).
T1 sequence: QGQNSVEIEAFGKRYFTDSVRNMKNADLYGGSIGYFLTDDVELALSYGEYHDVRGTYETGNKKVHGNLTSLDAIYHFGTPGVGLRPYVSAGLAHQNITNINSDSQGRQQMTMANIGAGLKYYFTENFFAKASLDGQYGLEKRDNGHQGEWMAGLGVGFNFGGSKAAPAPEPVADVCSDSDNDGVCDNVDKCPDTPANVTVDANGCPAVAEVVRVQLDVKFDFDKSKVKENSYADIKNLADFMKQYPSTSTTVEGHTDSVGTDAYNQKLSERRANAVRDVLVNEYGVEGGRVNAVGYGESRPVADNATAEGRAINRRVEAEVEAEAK
Put plainly: sandwich ELISA, anti-OprF antibody coated, biotin-labeled anti-IFN-γ antibody. Background: In an ELISA, binding on a coated surface is turned into a signal by an enzyme label.

Results are given in words; binding and its absence hold for the method and conditions named. Some results given as binding are weak or reduced against the parent protein; the word gives no strength.

Regarding “recombinant human IFN-γ (rH IFN-γ) (from UniProt P01579 24-166) (ligand)”, the binding result is recorded as “binds”.
